Literature values in US7504114B1, “Preparations for percutaneous absorption” (Hisamitsu Pharmaceuticals, priority 1999, dated 2009).
The name of at least one read-out is uncertain.

Conditions: index of lipophilicity; from Polymer Handbook or calculated by Fedors

Row | SMILES | solubility parameter δ
1 | CCCCCCCCCCSCCN1CCCC1=O [pirotiodecane, 1-[2-(decylthio)ethyl]azacyclopentane-2-one] | 9.6 (cal/cm^3)^1/2
2 | CCCCCCCC/C=C\CCCCCCCCO [oleyl alcohol] | 8.1 (cal/cm^3)^1/2
3 | CC(=O)OCC(COC(C)=O)OC(C)=O [triacetin] | 10.2 (cal/cm^3)^1/2
4 | CC(O)CO (stereo not shown) [propylene glycol] | 12.6 (cal/cm^3)^1/2
